Consider 1 substance from PMC4255029.

Protein sequences, listed by entry. Tags and fused reporters are not part of them.
UniProt Q14457: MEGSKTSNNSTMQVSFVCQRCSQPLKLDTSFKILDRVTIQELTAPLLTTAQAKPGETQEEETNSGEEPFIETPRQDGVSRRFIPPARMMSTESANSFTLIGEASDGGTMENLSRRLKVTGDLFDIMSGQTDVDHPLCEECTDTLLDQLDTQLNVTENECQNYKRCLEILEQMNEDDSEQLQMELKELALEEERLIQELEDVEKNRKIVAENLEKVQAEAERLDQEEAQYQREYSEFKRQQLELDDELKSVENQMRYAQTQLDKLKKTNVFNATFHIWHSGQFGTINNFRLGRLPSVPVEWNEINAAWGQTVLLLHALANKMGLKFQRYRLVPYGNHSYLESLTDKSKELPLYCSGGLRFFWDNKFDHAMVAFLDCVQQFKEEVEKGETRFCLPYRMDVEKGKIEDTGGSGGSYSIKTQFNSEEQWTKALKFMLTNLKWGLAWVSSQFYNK

These are yes or no findings as the source states them, for the method shown. In cells and extracts the contact can be indirect. Some results given as binding are weak or reduced against the parent protein; the word gives no strength.

For this experiment, the target named is T1, GAIP interacting protein C terminus (GIPC) (human (endogenous in PANC-1)) (UniProt O14908).
T1 sequence: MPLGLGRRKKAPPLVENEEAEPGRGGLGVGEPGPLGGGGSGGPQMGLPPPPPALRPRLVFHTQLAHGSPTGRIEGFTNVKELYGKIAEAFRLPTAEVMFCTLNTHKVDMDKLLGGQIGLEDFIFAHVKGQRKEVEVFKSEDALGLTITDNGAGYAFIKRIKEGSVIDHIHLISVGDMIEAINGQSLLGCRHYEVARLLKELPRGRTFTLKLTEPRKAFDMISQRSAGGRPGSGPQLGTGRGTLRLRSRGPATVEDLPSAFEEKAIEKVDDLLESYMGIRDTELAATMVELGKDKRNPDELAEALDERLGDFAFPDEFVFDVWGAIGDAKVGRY
In words: co-IP; GIPC antibody used to precipitate from PANC-1 cell lysates (cells transfected with siRNA to GIPC or scrambled control); immunocomplexes blotted for Beclin1 and GIPC.

On to Beclin1 (from UniProt Q14457 1-450), for which the binding result is listed as “binds”.
